Reference: PubChem BioAssay AID504772 (Drosophila RNAi Screening Center, 2011)

Test: 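Finding modifiers of Wnt signalling started by LRP6 in fly cells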 (primary screen)
Cells: Drosophila clone 8 cells
Reagents: long dsRNA against Drosophila genes
Timing: four days
Conditions: pathway switched on by co-transfected constitutively active LRP6 lacking its extracellular part (DeltaNLRP6)
Detection: 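Light from a beta-catenin-dependent firefly luciferase reporter (dTF12) relative to co-transfected Renilla luciferase, given as up or down, after four days with Wnt signalling driven by truncated active LRP6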
Rule for the call: 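a gene is picked when its silencing raises Wnt reporter signal by twofold or more and a human counterpart of the fly gene is known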
Calls: active = picked as conserved enhancer hit; inactive = not picked
The reagents shown are a selection, not the whole library. 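Only primary screen hits listed, as up or down without numbers; fold changes behind calls not deposited; all reporter-lowering hits marked not picked.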 Entries without a mark were called inactive. A plus sign joins genes that one reagent is predicted to hit. The record does not give: the amount of reagent, the dose of the treatment.

no.	target	DRSC id	reporter change after knockdown
1	eIF2alpha (eukaryotic translation initiation factor 2 subunit alpha)	DRSC20327	reporter signal went up
2	Hsp67Ba (Heat shock gene 67Ba)	DRSC11191	reporter signal went up
3	arm (armadillo)	DRSC18738	reporter signal went down
4	PrBP (Prenyl-binding protein)	DRSC03189	reporter signal went down
5	CG13743	DRSC06414	reporter signal went up
6	CG43736 + CG33692 (retired record)	DRSC18370	reporter signal went up
7	pan (pangolin)	DRSC17176	reporter signal went down
8	e(y)3 (enhancer of yellow 3)	DRSC19450	reporter signal went down
9	E(Pc) (Enhancer of Polycomb)	DRSC07408	reporter signal went up
10	ubl (ubiquitin like)	DRSC04998	reporter signal went up
11	Chd3	DRSC11114	reporter signal went up
12	Pc (Polycomb)	DRSC11873	reporter signal went up
13	Pig1 (Pre-intermoult gene 1)	DRSC18698	reporter signal went down
14	CG9018	DRSC08618	reporter signal went up
15	lig (lingerer)	DRSC07247	reporter signal went down
16	z (zeste)	DRSC18855	reporter signal went up
17	CG12104	DRSC08254	reporter signal went down
18	eyg (eyegone)	DRSC11344	reporter signal went down
19	Lrt (Leucine-rich tendon-specific protein)	DRSC06045	reporter signal went down
20	ap (apterous)	DRSC04917	reporter signal went down
21	tn (thin)	DRSC06532	reporter signal went down
22	cad (caudal)	DRSC03502	reporter signal went down
23	ken (ken and barbie)	DRSC04696	reporter signal went down
24	nocte (no circadian temperature entrainment)	DRSC18123	reporter signal went up
25	ringer (ringmaker)	DRSC10455	reporter signal went down
26	Tnpo (Transportin)	DRSC11309	reporter signal went up (active)
27	CG31224	DRSC16290	reporter signal went up
28	CG8180	DRSC07093	reporter signal went down
29	Zasp52 (Z band alternatively spliced PDZ-motif protein 52)	DRSC06269	reporter signal went down
30	scny (scrawny)	DRSC10509	reporter signal went down
31	RhoGEF64C (Rho guanine nucleotide exchange factor at 64C)	DRSC08319	reporter signal went down
32	eIF1A (eukaryotic translation initiation factor 1A)	DRSC16937	reporter signal went up
33	CG5608	DRSC15841	reporter signal went down
34	Bap55 (Brahma associated protein 55kD)	DRSC07000	reporter signal went up
35	CG10019	DRSC00279	reporter signal went down
36	bel (belle)	DRSC16555	reporter signal went up (active)
37	Tpc1	DRSC15614	reporter signal went down
38	CG18649	DRSC10334	reporter signal went up
39	MESR4 (Misexpression suppressor of ras 4)	DRSC06901	reporter signal went up
40	Rnf146 (Ring finger protein 146)	DRSC11045	reporter signal went up
41	NC2beta (Negative Cofactor 2beta)	DRSC01895	reporter signal went up
42	br (broad)	DRSC18744	reporter signal went down
43	pb (proboscipedia)	DRSC12629	reporter signal went up
44	Nup154 (Nucleoporin 154kD)	DRSC03384	reporter signal went up
45	snRNP-U1-C (small ribonucleoprotein particle U1 subunit C)	DRSC15804	reporter signal went up

Reformatted: results already given
ap (apterous) [DRSC04917]: reporter change after knockdown = reporter signal went down
tn (thin) [DRSC06532]: reporter change after knockdown = reporter signal went down
